From patent publication US20260327260A1, “PHOSPHONOALANINE OLIGOPEPTIDES AND METHODS OF MAKING AND USE THEREOF” (priority 2023, published 2026)
At least one compound was matched to its structure with a doubt left.

System: PnaA
Assay: PnaA kinetics: conversion of 2-KG and L-Asp to L-Glu and OAA, coupled to MDH/NADH oxidation
Format: biochemical, Streptomyces sp. NRRL S-515
Conditions: role: substrate (2-KG, 0.1-1.25 mM); second substrate L-Asp 5 mM; pH 7.5, 30° C

Question: What does the source list for `O=C(O)CCC(=O)C(=O)O` [2KG, α-ketoglutarate]?
Answer: Km: 899 µM; kcat: 1.8 s⁻¹
